Data reported in the supplement of paper PMC10849652.
The other results are listed elsewhere or left out.

Amino acid sequences for entries named in this document (tags omitted). A change or cut given only in a name is not applied to a line headed by its entry.
UniProt P60953, whole entry, looked up: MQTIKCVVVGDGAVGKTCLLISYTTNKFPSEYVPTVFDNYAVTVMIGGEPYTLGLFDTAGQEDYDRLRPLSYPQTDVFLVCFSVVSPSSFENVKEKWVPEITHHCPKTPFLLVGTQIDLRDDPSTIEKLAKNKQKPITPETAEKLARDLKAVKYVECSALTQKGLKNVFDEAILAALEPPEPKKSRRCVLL
UniProt P13987: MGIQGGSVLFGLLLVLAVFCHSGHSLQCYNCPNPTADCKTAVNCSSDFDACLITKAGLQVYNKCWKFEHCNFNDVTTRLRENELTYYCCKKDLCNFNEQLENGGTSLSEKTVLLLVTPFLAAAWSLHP
UniProt P08174: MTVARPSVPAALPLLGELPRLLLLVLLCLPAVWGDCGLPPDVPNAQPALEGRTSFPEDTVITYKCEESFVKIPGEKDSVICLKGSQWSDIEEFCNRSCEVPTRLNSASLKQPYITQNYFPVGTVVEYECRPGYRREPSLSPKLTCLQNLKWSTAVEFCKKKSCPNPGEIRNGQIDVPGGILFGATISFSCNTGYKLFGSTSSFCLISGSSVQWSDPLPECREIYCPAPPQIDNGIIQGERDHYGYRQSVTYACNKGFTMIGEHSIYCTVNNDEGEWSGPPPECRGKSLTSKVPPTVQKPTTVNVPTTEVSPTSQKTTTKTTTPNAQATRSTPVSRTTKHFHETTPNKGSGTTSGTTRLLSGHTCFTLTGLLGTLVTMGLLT
UniProt Q4VC31: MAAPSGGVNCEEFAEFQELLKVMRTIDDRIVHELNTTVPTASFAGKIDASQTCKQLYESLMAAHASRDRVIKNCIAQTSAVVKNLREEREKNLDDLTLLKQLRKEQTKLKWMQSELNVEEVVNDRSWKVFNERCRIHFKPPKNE
UniProt Q13951, whole entry, looked up: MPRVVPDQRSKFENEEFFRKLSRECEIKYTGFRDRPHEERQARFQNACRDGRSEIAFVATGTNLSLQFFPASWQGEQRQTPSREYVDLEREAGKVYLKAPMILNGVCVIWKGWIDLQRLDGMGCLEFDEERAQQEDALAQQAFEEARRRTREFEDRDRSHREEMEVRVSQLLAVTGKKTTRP
UniProt Q6NZI2: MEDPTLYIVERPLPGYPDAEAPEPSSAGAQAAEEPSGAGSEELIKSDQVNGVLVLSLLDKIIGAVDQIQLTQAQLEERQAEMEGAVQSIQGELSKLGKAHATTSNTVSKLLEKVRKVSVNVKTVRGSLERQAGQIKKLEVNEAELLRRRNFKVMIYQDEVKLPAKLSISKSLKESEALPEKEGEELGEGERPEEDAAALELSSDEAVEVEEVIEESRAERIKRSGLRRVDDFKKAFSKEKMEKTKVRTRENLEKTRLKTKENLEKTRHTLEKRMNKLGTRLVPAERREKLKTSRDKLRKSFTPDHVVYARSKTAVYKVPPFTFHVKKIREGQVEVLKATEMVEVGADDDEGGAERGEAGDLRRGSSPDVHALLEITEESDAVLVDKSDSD
UniProt Q6P1N0: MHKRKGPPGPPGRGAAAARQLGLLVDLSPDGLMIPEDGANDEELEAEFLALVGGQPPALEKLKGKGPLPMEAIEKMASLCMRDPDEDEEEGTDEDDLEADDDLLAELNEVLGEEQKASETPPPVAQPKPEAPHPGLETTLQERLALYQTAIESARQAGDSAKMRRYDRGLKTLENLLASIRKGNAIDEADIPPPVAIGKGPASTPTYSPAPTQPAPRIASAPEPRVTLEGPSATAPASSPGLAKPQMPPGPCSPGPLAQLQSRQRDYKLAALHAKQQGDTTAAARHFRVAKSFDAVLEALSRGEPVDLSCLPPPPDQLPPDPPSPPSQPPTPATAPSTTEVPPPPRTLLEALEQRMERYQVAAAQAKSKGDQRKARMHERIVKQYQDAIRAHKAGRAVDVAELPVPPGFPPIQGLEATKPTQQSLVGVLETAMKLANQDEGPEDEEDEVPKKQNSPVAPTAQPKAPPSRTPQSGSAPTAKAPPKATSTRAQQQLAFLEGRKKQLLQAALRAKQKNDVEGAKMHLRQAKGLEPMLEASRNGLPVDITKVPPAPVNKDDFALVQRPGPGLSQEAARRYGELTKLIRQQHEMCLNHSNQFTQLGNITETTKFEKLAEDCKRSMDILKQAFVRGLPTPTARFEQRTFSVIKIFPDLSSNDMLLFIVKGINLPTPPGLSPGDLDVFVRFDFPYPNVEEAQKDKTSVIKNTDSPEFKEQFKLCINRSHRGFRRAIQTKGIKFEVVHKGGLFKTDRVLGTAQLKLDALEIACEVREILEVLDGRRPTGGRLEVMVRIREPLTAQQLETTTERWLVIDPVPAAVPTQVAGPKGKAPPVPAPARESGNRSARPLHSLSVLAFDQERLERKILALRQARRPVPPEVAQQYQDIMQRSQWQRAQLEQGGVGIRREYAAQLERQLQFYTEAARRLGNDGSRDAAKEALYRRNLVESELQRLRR
UniProt P35520: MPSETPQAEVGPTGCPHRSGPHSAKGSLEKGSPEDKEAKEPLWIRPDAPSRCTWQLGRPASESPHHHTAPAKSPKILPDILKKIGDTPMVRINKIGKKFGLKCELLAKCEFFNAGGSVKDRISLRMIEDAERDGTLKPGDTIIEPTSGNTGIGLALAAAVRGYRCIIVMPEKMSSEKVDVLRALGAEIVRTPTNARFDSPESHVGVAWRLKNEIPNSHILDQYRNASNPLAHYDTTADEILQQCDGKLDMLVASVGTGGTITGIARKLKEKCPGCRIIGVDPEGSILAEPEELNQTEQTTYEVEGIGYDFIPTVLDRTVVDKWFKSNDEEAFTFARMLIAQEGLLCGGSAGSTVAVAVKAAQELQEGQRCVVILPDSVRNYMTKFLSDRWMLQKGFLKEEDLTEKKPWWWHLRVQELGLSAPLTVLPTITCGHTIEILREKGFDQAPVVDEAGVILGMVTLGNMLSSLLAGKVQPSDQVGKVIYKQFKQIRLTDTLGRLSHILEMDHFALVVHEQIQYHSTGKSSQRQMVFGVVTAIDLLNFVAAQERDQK
UniProt Q9HA77: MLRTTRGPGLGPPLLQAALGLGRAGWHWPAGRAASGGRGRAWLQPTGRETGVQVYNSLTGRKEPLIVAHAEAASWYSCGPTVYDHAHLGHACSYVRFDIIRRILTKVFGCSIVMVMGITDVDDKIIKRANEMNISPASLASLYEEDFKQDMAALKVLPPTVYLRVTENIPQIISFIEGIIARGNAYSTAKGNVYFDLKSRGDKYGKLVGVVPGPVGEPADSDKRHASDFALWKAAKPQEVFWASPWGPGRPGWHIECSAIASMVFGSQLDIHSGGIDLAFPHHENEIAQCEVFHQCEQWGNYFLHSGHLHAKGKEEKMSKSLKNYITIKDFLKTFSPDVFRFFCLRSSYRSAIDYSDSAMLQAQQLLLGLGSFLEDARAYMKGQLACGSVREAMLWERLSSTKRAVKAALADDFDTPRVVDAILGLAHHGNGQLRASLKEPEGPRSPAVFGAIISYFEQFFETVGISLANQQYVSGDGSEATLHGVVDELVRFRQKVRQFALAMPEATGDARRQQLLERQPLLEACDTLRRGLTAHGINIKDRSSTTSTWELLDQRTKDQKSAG
UniProt P51946: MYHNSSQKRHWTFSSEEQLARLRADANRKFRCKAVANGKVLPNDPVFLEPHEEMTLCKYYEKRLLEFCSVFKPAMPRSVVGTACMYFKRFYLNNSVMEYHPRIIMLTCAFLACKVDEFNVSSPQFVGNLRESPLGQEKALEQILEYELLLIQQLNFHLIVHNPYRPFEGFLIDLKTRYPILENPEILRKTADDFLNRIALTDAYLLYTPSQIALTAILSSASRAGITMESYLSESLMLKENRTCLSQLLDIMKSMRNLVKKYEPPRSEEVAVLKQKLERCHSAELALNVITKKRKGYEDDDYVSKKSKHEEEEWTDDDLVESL
UniProt P86791: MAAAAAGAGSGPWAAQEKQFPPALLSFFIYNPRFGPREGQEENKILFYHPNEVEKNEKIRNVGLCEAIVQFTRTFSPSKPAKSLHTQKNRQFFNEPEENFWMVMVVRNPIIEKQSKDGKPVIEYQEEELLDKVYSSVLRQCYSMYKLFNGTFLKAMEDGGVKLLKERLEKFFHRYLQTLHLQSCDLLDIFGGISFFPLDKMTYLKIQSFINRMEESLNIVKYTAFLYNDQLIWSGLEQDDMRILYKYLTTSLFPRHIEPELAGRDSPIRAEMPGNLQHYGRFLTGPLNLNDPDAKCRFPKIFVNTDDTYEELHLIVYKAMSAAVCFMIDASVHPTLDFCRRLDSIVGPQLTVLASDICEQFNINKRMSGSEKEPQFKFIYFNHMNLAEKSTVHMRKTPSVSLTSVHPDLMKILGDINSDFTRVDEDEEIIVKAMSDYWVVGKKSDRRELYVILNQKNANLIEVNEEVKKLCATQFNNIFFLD
UniProt Q13185: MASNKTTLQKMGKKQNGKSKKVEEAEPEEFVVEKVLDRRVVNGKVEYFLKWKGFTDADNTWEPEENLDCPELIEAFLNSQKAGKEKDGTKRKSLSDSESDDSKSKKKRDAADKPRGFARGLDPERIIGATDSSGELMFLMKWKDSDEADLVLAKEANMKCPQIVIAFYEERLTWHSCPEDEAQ
UniProt Q13191, whole entry, looked up: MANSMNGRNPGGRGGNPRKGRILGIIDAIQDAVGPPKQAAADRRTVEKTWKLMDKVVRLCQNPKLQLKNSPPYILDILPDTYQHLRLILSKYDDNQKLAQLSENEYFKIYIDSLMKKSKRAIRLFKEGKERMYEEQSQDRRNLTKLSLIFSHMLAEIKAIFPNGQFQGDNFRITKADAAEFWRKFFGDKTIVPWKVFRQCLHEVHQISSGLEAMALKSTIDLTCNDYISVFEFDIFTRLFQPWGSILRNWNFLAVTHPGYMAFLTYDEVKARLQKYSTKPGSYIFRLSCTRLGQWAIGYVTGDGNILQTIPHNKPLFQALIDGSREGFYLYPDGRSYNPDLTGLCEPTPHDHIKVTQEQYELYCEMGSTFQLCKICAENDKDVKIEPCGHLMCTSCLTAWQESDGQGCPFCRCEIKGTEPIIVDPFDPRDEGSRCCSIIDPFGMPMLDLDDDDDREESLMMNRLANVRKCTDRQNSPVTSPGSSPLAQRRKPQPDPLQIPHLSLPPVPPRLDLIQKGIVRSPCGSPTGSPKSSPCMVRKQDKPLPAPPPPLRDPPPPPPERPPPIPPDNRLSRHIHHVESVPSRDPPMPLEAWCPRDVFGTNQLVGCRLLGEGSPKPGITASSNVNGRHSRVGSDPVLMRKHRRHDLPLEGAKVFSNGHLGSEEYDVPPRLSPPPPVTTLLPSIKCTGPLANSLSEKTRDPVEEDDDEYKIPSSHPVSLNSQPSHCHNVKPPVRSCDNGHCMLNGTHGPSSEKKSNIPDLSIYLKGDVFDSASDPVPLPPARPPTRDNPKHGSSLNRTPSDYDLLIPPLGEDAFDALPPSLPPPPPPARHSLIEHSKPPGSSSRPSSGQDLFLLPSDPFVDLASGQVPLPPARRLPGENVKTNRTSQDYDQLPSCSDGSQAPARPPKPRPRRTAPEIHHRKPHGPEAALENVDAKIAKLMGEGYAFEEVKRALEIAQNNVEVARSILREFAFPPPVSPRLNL
UniProt Q5T0F9: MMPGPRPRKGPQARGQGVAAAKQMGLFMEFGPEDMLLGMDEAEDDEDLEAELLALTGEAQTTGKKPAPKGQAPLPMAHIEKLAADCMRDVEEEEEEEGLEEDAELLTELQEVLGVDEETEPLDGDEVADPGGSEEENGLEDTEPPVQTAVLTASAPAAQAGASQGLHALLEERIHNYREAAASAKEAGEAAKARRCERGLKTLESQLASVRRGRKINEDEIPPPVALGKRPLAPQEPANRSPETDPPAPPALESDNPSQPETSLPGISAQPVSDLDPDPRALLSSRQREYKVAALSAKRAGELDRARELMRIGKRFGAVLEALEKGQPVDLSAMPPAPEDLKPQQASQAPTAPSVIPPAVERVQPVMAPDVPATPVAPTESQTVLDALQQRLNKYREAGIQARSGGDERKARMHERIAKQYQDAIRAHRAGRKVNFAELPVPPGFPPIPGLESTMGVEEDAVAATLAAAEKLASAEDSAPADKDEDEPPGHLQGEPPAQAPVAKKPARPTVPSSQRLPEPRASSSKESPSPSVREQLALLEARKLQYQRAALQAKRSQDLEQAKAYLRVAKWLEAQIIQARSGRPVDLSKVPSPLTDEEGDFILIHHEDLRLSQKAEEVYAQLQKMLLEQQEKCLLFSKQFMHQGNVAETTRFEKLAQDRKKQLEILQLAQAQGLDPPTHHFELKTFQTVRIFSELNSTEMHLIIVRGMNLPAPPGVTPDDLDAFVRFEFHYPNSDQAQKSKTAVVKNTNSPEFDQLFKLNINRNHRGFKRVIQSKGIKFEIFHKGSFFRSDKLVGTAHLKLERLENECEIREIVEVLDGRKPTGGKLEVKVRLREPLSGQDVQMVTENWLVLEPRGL

How the values were obtained:
Assay in all cases: log2 fold change, soluble protein after heating vs DMSO (PISA); higher = thermal stabilisation; K562 cells, 10 uM, 30 min; active = over 0.2 and 3.5 SD of the protein, either way, in both replicates (recomputed)
bafetinib = compound: Cc1ccc(NC(=O)c2ccc(CN3CC[C@H](N(C)C)C3)c(C(F)(F)F)c2)cc1Nc1nccc(-c2cncnc2)n1 [bafetinib]
Method in brief: (§1)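 Soluble protein was defined as the supernatant after 21,000xg for 90 min. It came from K562 cells at 2×10^6 cells/mL given 10 μM compound for 30 min, heated in aliquots for 3 min across 48°C-58°C, pooled, and extracted in PBS with 0.5% NP-40 at 4°C, and was quantified by TMTpro 16plex LC-MS/MS with equalised channel sums. Thermal stability against control samples, from duplicates, is reported as log2 fold change.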

[1] = compound: Cc1cccc(CC(=O)N2CCc3c2ccc(-c2cn(C)c4ncnc(N)c24)c3F)n1
Method in brief: as §1

nilotinib = compound: Cc1cn(-c2cc(NC(=O)c3ccc(C)c(Nc4nccc(-c5cccnc5)n4)c3)cc(C(F)(F)F)c2)cn1 [nilotinib]
Method in brief: as §1

[2] = compound: Cc1nc(Nc2n[nH]c3c2CN(C(=O)N[C@H](CN(C)C)c2ccccc2)C3(C)C)c2sccc2n1
Method in brief: as §1

dasatinib = compound: Cc1nc(Nc2ncc(C(=O)Nc3c(C)cccc3Cl)s2)cc(N2CCN(CCO)CC2)n1 [dasatinib]
Method in brief: as §1

[3] = compound: Cc1ncc(-c2ccnc(Nc3ccc(S(C)(=O)=O)cc3)n2)n1C(C)C
Method in brief: as §1

[4] = compound: Cn1cc(-c2ccc3c(c2)CCN3C(=O)Cc2cccc(C(F)(F)F)c2)c2c(N)ncnc21
Method in brief: as §1

[5] = compound: Cn1cc(-c2ccc3nnc(C(F)(F)c4ccc5ncccc5c4)n3n2)cn1
Method in brief: as §1

tipifarnib = compound: Cn1cncc1[C@@](N)(c1ccc(Cl)cc1)c1ccc2c(c1)c(-c1cccc(Cl)c1)cc(=O)n2C [tipifarnib]
Method in brief: as §1

mubritinib = compound: FC(F)(F)c1ccc(/C=C/c2nc(COc3ccc(CCCCn4ccnn4)cc3)co2)cc1 [mubritinib]
Method in brief: as §1

[6] = compound: NC(=O)Nc1cc(-c2cccc(F)c2)sc1C(=O)N[C@H]1CCCNC1
Method in brief: as §1

[7] = compound: NC(=O)c1cnc(N[C@@H]2CCCC[C@@H]2N)nc1Nc1cccc(-n2nccn2)c1
Method in brief: as §1

[8] = compound: NC1(c2ccc(-c3nc4ccn5c(=O)[nH]nc5c4cc3-c3ccccc3)cc2)CCC1
Method in brief: as §1

[9] = compound: NCC(=O)Nc1ccc(-n2nc(C(F)(F)F)cc2-c2ccc3c(ccc4ccccc43)c2)cc1
Method in brief: as §1

entinostat = compound: Nc1ccccc1NC(=O)c1ccc(CNC(=O)OCc2cccnc2)cc1 [entinostat]
Method in brief: as §1

vorinostat = compound: O=C(CCCCCCC(=O)Nc1ccccc1)NO [vorinostat]
Method in brief: as §1

citarinostat = compound: O=C(CCCCCCNC(=O)c1cnc(N(c2ccccc2)c2ccccc2Cl)nc1)NO [citarinostat]
Method in brief: as §1

silmitasertib = compound: O=C(O)c1ccc2c(c1)nc(Nc1cccc(Cl)c1)c1ccncc12 [silmitasertib]
Method in brief: as §1

[10] = compound: O=C1NC(=O)C(c2cnc3ccccn23)=C1c1cn2c3c(cc(F)cc13)CN(C(=O)N1CCCCC1)CC2
Method in brief: as §1

[11] = compound: c1cc(OCCN2CCCCC2)cc(-c2n[nH]c3ccc(-c4nnc[nH]4)cc23)c1
Method in brief: as §1

Measured: log2 fold change

CDC42 isoform 1 (UniProt P60953)
inactive: bafetinib 0.009 | [1] -0.075 | nilotinib 0.042 | [2] 0.002 | dasatinib 0.116 | [3] -0.01 | [4] -0.03 | [5] 0.091 | tipifarnib 0.022 | mubritinib 0.028 | [6] -0.031 | [7] -0.004 | [8] 0.059 | [9] -0.086 | entinostat -0.032 | vorinostat -0.065 | citarinostat 0.006 | silmitasertib 0.026 | [10] -0.032 | [11] -0.134

CD59 isoform 2 (UniProt P13987)
inactive: bafetinib 0.057 | [1] -0.012 | nilotinib 0.158 | [2] 0.008 | dasatinib 0.155 | [3] -0.11 | [4] 0 | [5] -0.028 | tipifarnib 0.032 | mubritinib -0.03 | [6] -0.087 | [7] 0.112 | [8] 0.112 | [9] 0.142 | entinostat -0.039 | vorinostat -0.019 | citarinostat 0.007 | silmitasertib 0.04 | [10] -0.119 | [11] -0.044

CD55 isoform 7 (UniProt P08174)
inactive: bafetinib 0.168 | [1] -0.06 | nilotinib 0.086 | [2] 0.027 | dasatinib 0.096 | [3] -0.026 | [4] -0.051 | [5] -0.012 | tipifarnib -0.027 | mubritinib -0.075 | [6] -0.048 | [7] 0.028 | [8] 0.128 | [9] 0.108 | entinostat 0.018 | vorinostat -0.044 | citarinostat 0.009 | silmitasertib -0.006 | [10] -0.043 | [11] -0.047

CCDC58 (UniProt Q4VC31)
inactive: bafetinib -0.098 | [1] -0.021 | nilotinib -0.005 | [2] 0.031 | dasatinib 0.029 | [3] 0.01 | [4] 0.017 | [5] 0.047 | tipifarnib -0.002 | mubritinib -0.037 | [6] -0.006 | [7] 0.013 | [8] 0.004 | [9] 0.043 | entinostat -0.002 | vorinostat -0.007 | citarinostat 0.003 | silmitasertib -0.022 | [10] -0.005 | [11] 0.052

CBFB isoform 2 (UniProt Q13951)
inactive: bafetinib -0.089 | [1] 0.094 | nilotinib -0.021 | [2] -0.039 | dasatinib -0.044 | [3] 0.021 | [4] 0.067 | [5] 0.072 | tipifarnib -0.046 | mubritinib 0.029 | [6] 0.238 | [7] -0.055 | [8] -0.119 | [9] 0.016 | entinostat 0.098 | vorinostat 0.011 | citarinostat -0.028 | silmitasertib 0.047 | [10] -0.057 | [11] 0.007

CAVIN1 (UniProt Q6NZI2)
inactive: bafetinib 0.114 | [1] 0.004 | nilotinib -0.047 | [2] 0.104 | dasatinib -0.001 | [3] -0.11 | [4] -0.157 | [5] -0.204 | tipifarnib 0.125 | mubritinib -0.067 | [6] 0.034 | [7] -0.07 | [8] 0.046 | [9] 0.074 | entinostat 0.008 | vorinostat 0.004 | citarinostat -0.004 | silmitasertib 0.041 | [10] 0.108 | [11] -0.087

Fetched one by one from the entries so far, two records:
CD59 isoform 2 (UniProt P13987)
inactive: bafetinib 0.057 | [1] -0.012 | nilotinib 0.158 | [2] 0.008 | dasatinib 0.155 | [3] -0.11 | [4] 0 | [5] -0.028 | tipifarnib 0.032 | mubritinib -0.03 | [6] -0.087 | [7] 0.112 | [8] 0.112 | [9] 0.142 | entinostat -0.039 | vorinostat -0.019 | citarinostat 0.007 | silmitasertib 0.04 | [10] -0.119 | [11] -0.044

CCDC58 (UniProt Q4VC31)
inactive: bafetinib -0.098 | [1] -0.021 | nilotinib -0.005 | [2] 0.031 | dasatinib 0.029 | [3] 0.01 | [4] 0.017 | [5] 0.047 | tipifarnib -0.002 | mubritinib -0.037 | [6] -0.006 | [7] 0.013 | [8] 0.004 | [9] 0.043 | entinostat -0.002 | vorinostat -0.007 | citarinostat 0.003 | silmitasertib -0.022 | [10] -0.005 | [11] 0.052

(cont.)

CC2D1A (UniProt Q6P1N0)
inactive: bafetinib -0.071 | [1] 0.09 | nilotinib -0.008 | [2] -0.003 | dasatinib -0.129 | [3] 0.02 | [4] 0.055 | [5] 0.008 | tipifarnib -0.05 | mubritinib -0.076 | [6] -0.01 | [7] 0.031 | [8] 0.018 | [9] -0.012 | entinostat 0.068 | vorinostat 0.03 | citarinostat 0 | silmitasertib 0.119 | [10] -0.043 | [11] -0.059

CBS (UniProt P35520)
inactive: bafetinib -0.031 | [1] -0.029 | nilotinib 0.025 | [2] -0.012 | dasatinib 0.018 | [3] -0.003 | [4] 0.079 | [5] 0.035 | tipifarnib -0.023 | mubritinib 0.056 | [6] -0.008 | [7] 0.006 | [8] -0.025 | [9] 0.016 | entinostat -0.033 | vorinostat -0.031 | citarinostat -0.058 | silmitasertib -0.038 | [10] -0.027 | [11] 0.027

CCDC47 (UniProt Q96A33)
inactive: bafetinib -0.065 | [1] -0.022 | nilotinib -0.056 | [2] 0.011 | dasatinib -0.072 | [3] -0.005 | [4] 0.03 | [5] -0.013 | tipifarnib -0.061 | mubritinib 0.032 | [6] -0.024 | [7] -0.049 | [8] -0.081 | [9] -0.088 | entinostat -0.014 | vorinostat 0.023 | citarinostat -0.019 | silmitasertib -0.006 | [10] -0.084 | [11] 0.021

CARS2 (UniProt Q9HA77)
inactive: bafetinib -0.001 | [1] -0.055 | nilotinib -0.024 | [2] 0.053 | dasatinib -0.067 | [3] -0.002 | [4] -0.012 | [5] -0.007 | tipifarnib -0.001 | mubritinib -0.028 | [6] -0.009 | [7] -0.037 | [8] -0.002 | [9] -0.077 | entinostat -0.033 | vorinostat 0.028 | citarinostat -0.012 | silmitasertib 0.047 | [10] -0.075 | [11] 0.007

CCNH (UniProt P51946)
inactive: bafetinib -0.064 | [1] -0.01 | nilotinib -0.008 | [2] 0.113 | dasatinib 0.023 | [3] -0.056 | [4] -0.005 | [5] 0.005 | tipifarnib 0.051 | mubritinib 0.08 | [6] -0.043 | [7] -0.009 | [8] 0.024 | [9] -0.02 | entinostat -0.006 | vorinostat -0.028 | citarinostat 0.015 | silmitasertib 0.02 | [10] -0.083 | [11] -0.027

CCZ1 (UniProt P86791)
inactive: bafetinib -0.127 | [1] 0.007 | nilotinib 0.024 | [2] -0.022 | dasatinib -0.057 | [3] -0.098 | [4] 0.021 | [5] 0.025 | tipifarnib 0.043 | mubritinib 0.038 | [6] 0.036 | [7] -0.072 | [9] -0.077 | entinostat 0.006 | vorinostat 0.013 | citarinostat -0.011 | silmitasertib 0.039 | [10] -0.01 | [11] -0.033
active: [8] -0.33

CBX3 (UniProt Q13185)
inactive: bafetinib -0.09 | [1] -0.082 | nilotinib 0.126 | [2] -0.128 | dasatinib 0.011 | [3] -0.048 | [4] 0.006 | [5] 0.029 | tipifarnib 0.035 | mubritinib 0.013 | [6] -0.059 | [7] -0.063 | [8] 0.046 | [9] -0.06 | entinostat 0.096 | vorinostat -0.047 | citarinostat -0.051 | silmitasertib -0.094 | [10] 0.042 | [11] 0.046

CBLB (UniProt Q13191)
inactive: bafetinib -0.017 | [1] -0.065 | nilotinib 0.021 | [2] 0.012 | dasatinib 0.018 | [3] -0.06 | [4] 0.053 | [5] 0.034 | tipifarnib 0.049 | mubritinib -0.03 | [6] -0.009 | [7] -0.02 | [8] 0.008 | [9] -0.17 | entinostat -0.042 | vorinostat 0 | citarinostat 0.089 | silmitasertib 0.007 | [10] -0.135 | [11] -0.054

CC2D1B isoform 2 (UniProt Q5T0F9)
inactive: bafetinib -0.004 | [1] -0.008 | nilotinib -0.025 | [2] -0.074 | dasatinib -0.067 | [3] 0.043 | [4] 0.064 | [5] 0.017 | tipifarnib 0.013 | mubritinib 0.069 | [6] -0.045 | [7] 0.004 | [8] -0.019 | [9] -0.023 | entinostat -0.026 | vorinostat 0.003 | citarinostat -0.025 | silmitasertib -0.003 | [10] -0.196 | [11] -0.043
